The values below come from patent publication US20190300618A1 (Merck Sharp & Dohme, published 2019).

By UniProt entry, the sequences of proteins in these tests, tags left out. Where a name states a change or a piece, a line headed by the entry shows the natural chain unless it says otherwise.
UniProt P26842: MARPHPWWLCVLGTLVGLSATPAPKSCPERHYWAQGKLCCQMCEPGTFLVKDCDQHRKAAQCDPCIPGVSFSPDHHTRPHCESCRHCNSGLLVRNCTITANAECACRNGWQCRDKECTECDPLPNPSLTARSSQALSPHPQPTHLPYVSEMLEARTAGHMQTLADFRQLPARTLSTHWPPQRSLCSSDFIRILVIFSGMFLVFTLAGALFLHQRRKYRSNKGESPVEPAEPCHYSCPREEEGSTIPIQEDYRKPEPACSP

For this assay, the target named is human CD27 (wild type), expressed on cells (human) (UniProt P26842). Briefly: flow cytometry, transiently transfected CHO-K1.

Results are given in words; binding and its absence hold for the method and conditions named. Some entries that bind do so weakly or less than the wild type.

B1: chimeric hCD27.15-c4 (antibody, human IgG4 S228P, kappa, V domains shown)
VH: EVRLQQSGADLVKPGASVKLSCTASGFIIKATYMHWVRQRPEQGLEWIGRIDPANGETKYDPKFQVKATITADTSSSTAYLQLNSLTSDDTAVYYCARYAWYFDVWGAGTTVTVSS
VL: DIQMTQSPASLSASVGDTVTITCRASENIYSFLAWYHQKQGRSPQLLVYHAKTLAEGVPSRFSGSGSGTQFSLKINSLQAEDFGSYYCQHYYGSPLTFGAGTKLEVKR
B1: the binding result is reported as “binds”.
